Data from PubChem BioAssay AID2685 (National Center for Advancing Translational Sciences (NCATS), 2010).
This is one part of the list. The main result of the screen is listed elsewhere. These columns were measured beside it and carry no call. Compounds called inactive in the main read-out are mostly missing here. Potencies come from curve fits of mixed quality, noted in brackets.

Experiment: qHTS Assay for Lipid Storage Modulators in Drosophila S3 Cells;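 as to cell number change: cells counted by Cell Tracker Red CMTPX staining in the red channel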
Settings: BODIPY lipid droplet fluorescence, 18-24 h; for cell number change: measured here: cell count max response, cells fed with added oleic acid
In short: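 Laser-scanning cytometry quantifies lipid droplet accumulation (500–530 nm total intensity; droplet/cell object ratio) in oleic acid-fed (400 uM added) Drosophila S3 cells treated with a concentration series. 20 uM Triacsin C defined 100% inhibition.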

[1] = measured here: cell number channel AC50, cells fed with added oleic acid
[2] = measured here: lipid fluorescence (Fed channel) AC50, cells fed with added oleic acid

Cc1ccccc1C(=O)Nc1ccc(N2CCOCC2)nc1
cell number change: -31.6% | AC50 [1]: 32.6 µM [falling, single point]

COc1ccc(NS(=O)(=O)c2ccc3c(c2)[C@H]2C=CC[C@H]2[C@@H](c2ccc(C(=O)O)cc2)N3)cc1
cell number change: -19.7% | AC50 [2]: 0.501 µM [rising, partial curve, poor fit]

Cc1ccccc1Nc1nc(CSc2nnc(-c3ccoc3C)n2C)cs1
cell number change: -2.2% | AC50 [2]: 0.116 µM [rising, full curve]

CCOc1ccc2nc(Cl)c(CN(C(=O)c3cnccn3)C3CCCC3)cc2c1
cell number change: -5.85%

Cc1c(C)n(CC(O)CN2C(=O)c3ccccc3S2(=O)=O)c2ccccc12 (stereo not given)
cell number change: 45.7% | AC50 [1]: 16.4 µM [rising, single point]

Cc1ccc(N(C)C(=O)c2ccc3c(Cl)c4c(nc3c2)CCC4)cc1C
cell number change: -16.7% | AC50 [1]: 0.58 µM [falling, full curve, poor fit] | AC50 [2]: 0.651 µM [falling, full curve, poor fit]

C=CCc1cccc(CNc2nc3ccccc3n2C(C)C)c1O
cell number change: -43.9% | AC50 [1]: 32.6 µM [falling, single point] | AC50 [2]: 14.6 µM [falling, partial curve]

O=C(COC(=O)c1nc(Cl)ccc1Cl)Nc1ccc2c(c1)OCO2
cell number change: 4.92%

COc1cc(NC(=O)CCn2c(=O)oc3ccccc32)cc(OC)c1OC
cell number change: 7.94% | AC50 [2]: 0.58 µM [rising, single point]

O=C(OCn1ncc(Br)c(Br)c1=O)c1ccc(F)cc1
cell number change: -64.3% | AC50 [1]: 18.4 µM [falling, single point] | AC50 [2]: 29.1 µM [falling, single point]

Cc1noc(C)c1C(=O)NC(C)c1ccc(Cl)cc1Cl (stereo not given)
cell number change: 6.72% | AC50 [1]: 0.00517 µM [rising, full curve, poor fit] | AC50 [2]: 0.00461 µM [rising, full curve, poor fit]

O=[N+]([O-])c1cccc(N/N=C/c2cccc(O)c2O)c1
cell number change: -3.53% | AC50 [1]: 6.51 µM [falling, single point] | AC50 [2]: 6.51 µM [falling, single point]

CCc1cc2c(-c3ccccc3)cc(=O)oc2cc1OCC(C)=O
AC50 [2]: 8.2 µM [falling, single point]

CCC1(c2ccccc2)NC(=O)N(CC(=O)NNC(=O)c2ccc(F)cc2)C1=O (stereo not given)
cell number change: 100% | AC50 [1]: 5.8 µM [falling, partial curve, poor fit]

COc1ccc(NC(=O)C2OCCc3ccccc32)c(OC)c1 (stereo not given)
cell number change: 5.66% | AC50 [2]: 0.58 µM [rising, partial curve]

Cc1cc(OC(=O)c2ccccc2Br)cc(=O)n1C
cell number change: -14.6% | AC50 [2]: 6.51 µM [rising, single point]

CC1(C)CC(=O)C(CC2=C(N)CC(C)(C)CC2=O)=C(N)C1
cell number change: 22.7% | AC50 [1]: 3.26 µM [rising, full curve, poor fit]

O=C1CC(c2ccc3c(c2)OCO3)c2cc3c(cc2N1)OCO3 (stereo not given)
cell number change: -25.4% | AC50 [1]: 2.91 µM [falling, full curve, poor fit] | AC50 [2]: 2.91 µM [rising, partial curve]

Cc1cccc(C(=O)Nc2ccccc2-c2nnn(CC(=O)Nc3ccc4c(c3)OCCO4)n2)c1
cell number change: -12.2%

CS(=O)(=O)N(Cc1ccccc1)c1ccc(C(=O)NCc2cccnc2)cc1
AC50 [2]: 0.731 µM [rising, single point]

Oc1[nH]c(=S)sc1/C=C1\C(c2ccccc2)=Nc2ccccc21
cell number change: 58.6% | AC50 [1]: 5.8 µM [rising, partial curve] | AC50 [2]: 10.3 µM [rising, partial curve]

COc1ccc(OCC(O)CNC(=O)c2ccc(OC)cc2)cc1 (stereo not given)
cell number change: -35.2%

O=C1CCc2cc(NS(=O)(=O)c3ccc([N+](=O)[O-])cc3)cc3c2N1CCC3
cell number change: 35.4% | AC50 [1]: 7.31 µM [rising, partial curve]

Nc1nonc1-c1nc2ccccc2n1Cc1ccccc1
cell number change: 130% | AC50 [1]: 4.11 µM [rising, full curve] | AC50 [2]: 10.3 µM [rising, partial curve]

CC(C)CN(Cc1cc(=O)oc2cc(-c3ccccc3)c(O)cc12)CC(C)C
cell number change: -60.3% | AC50 [1]: 29.1 µM [falling, single point]

O=C(CSc1nnc(Cn2nnc3ccccc32)o1)N(Cc1ccc(Cl)cc1)c1ccccc1
cell number change: -22.2% | AC50 [2]: 2.91 µM [rising, partial curve]

NNc1ccc2c(C(F)(F)F)cc(C(F)(F)F)nc2n1
AC50 [2]: 0.116 µM [falling, full curve, poor fit]

O=C(NN=c1c(=O)c2ccccc2c1=O)c1ccccc1
cell number change: 17.9% | AC50 [2]: 4.61 µM [rising, partial curve]

COc1cccc(N(CC(=O)NC2CCCC2)C(=O)Cn2nnc(-c3ccc(C)cc3)n2)c1
cell number change: 13.5%

CC1(C)N=C(c2cccc(F)c2)C(=O)N1
cell number change: 10.7%

COc1ccc(OC)c(NC(=O)c2cc(-c3cc(C)c(C)cc3O)n[nH]2)c1
cell number change: 142% | AC50 [1]: 29.1 µM [rising, single point] | AC50 [2]: 29.1 µM [rising, single point]

CCOC(=O)N1CCN(C(=O)CSc2nnc(-c3ccc(C(C)(C)C)cc3)o2)CC1
cell number change: -18.1% | AC50 [2]: 2.06 µM [falling, full curve]

Cn1nc(C(=O)N2CCCCC2)c2c1-c1ccccc1S(=O)(=O)C2
cell number change: 31% | AC50 [1]: 0.00461 µM [rising, full curve, poor fit] | AC50 [2]: 29.1 µM [rising, single point]

CN(CC1CCOCC1)C(=O)CC1C(=O)NCCN1Cc1cccc(C(F)(F)F)c1 (stereo not given)
cell number change: 4.36% | AC50 [2]: 0.00517 µM [rising, full curve, poor fit]

CC(=O)Nc1nonc1-n1nnc(C(=O)NCc2ccccc2)c1C
AC50 [2]: 0.00411 µM [rising, full curve, poor fit]

Cc1cccc(N2C(=O)CC(Sc3nc(-c4ccccc4)c4cc(Cl)ccc4n3)C2=O)c1 (stereo not given)
cell number change: -8.39% | AC50 [2]: 3.66 µM [rising, full curve, poor fit]

Cc1cc(NCCCn2ccnc2)n2c(nc3ccccc32)c1C#N
cell number change: 176% | AC50 [1]: 6.51 µM [rising, partial curve] | AC50 [2]: 1.16 µM [rising, partial curve]

Cc1c(N=C2N=C(NC(=O)NC(C)(C)C)c3ccccc32)c(=O)n(-c2ccccc2)n1C
cell number change: -12.9%

Nc1c(C(=O)Nc2ccc3c(c2)OCCO3)nnn1Cc1ccc(F)cc1
cell number change: -25% | AC50 [1]: 1.46 µM [rising, partial curve]

O=C(c1ccc(CNS(=O)(=O)c2ccc(Br)cc2)cc1)N1CCCCC1
cell number change: 0.763%

Cc1ccc(C(=O)NC(=S)NCCCN2CCOCC2)cc1
cell number change: -19% | AC50 [2]: 5.17 µM [falling, full curve, poor fit]

COc1ccc(CCNC(=O)CCn2c(SCC#N)nc3ccccc3c2=O)cc1OC
cell number change: 1.98% | AC50 [2]: 5.8 µM [rising, full curve, poor fit]

O=C(Nc1ccc2c(c1)S(=O)(=O)N=C1CCCCCN12)c1ccccc1Cl
cell number change: 44.8% | AC50 [1]: 0.731 µM [rising, full curve] | AC50 [2]: 0.731 µM [rising, full curve]

N=c1c(S(=O)(=O)c2ccccc2)cc2c(=O)n3ccccc3nc2n1Cc1cccnc1
cell number change: 110% | AC50 [1]: 29.1 µM [rising, single point] | AC50 [2]: 6.51 µM [falling, full curve, poor fit]

O=C(O)CCN1C(=O)/C(=C\c2ccncc2)SC1=S
cell number change: 52.5% | AC50 [1]: 8.2 µM [rising, partial curve]

COc1cccc(NC(=O)Cn2c(=O)n(-c3cc(OC)c(OC)c(OC)c3)c(=O)c3ccccc32)c1
cell number change: -3.26% | AC50 [1]: 0.517 µM [falling, single point]

O=C1CN(C(=O)COC(=O)CNC(=O)c2ccc(Cl)cc2)c2ccccc2N1
cell number change: 3.21%

Cc1ncc(CO)c2c1Oc1nc(-c3ccccc3)nc(SCC(=O)N3CCOCC3)c1C2
cell number change: -30.7% | AC50 [1]: 4.61 µM [falling, partial curve]

O=C(O)C(=O)/C(=C\c1ccccc1)c1ccc2ccccc2n1
AC50 [2]: 6.51 µM [rising, partial curve, poor fit]

Cc1ccc(C)c(S(=O)(=O)Nc2ccc(O)cc2)c1
cell number change: -9.95% | AC50 [2]: 0.00461 µM [falling, full curve, poor fit]

COC(=O)c1onc(-c2c(OC)cc(OC)cc2OC)c1C(=O)OC
cell number change: -2.28% | AC50 [2]: 7.31 µM [rising, partial curve]

Nc1nc(SCc2ccc3c(c2)OCCO3)n[nH]1
cell number change: 0.76%

COc1ccc(N(C(=O)c2cnccn2)C(C(=O)NC2CCCCC2)c2cc(OC)c(OC)c(OC)c2)cc1 (stereo not given)
cell number change: 5.26% | AC50 [2]: 0.631 µM [falling, partial curve, poor fit]

S=C(NCC1CCCO1)NC1CCCCC1 (stereo not given)
cell number change: -1.75% | AC50 [2]: 2.59 µM [falling, partial curve]

Cn1nc(-c2ccccc2)c(C#N)c1Sc1cccc(Cl)c1
cell number change: 11.8% | AC50 [2]: 29.1 µM [rising, single point]

C#CCOc1c(Cl)cc(/C=C2/C(=O)ON=C2C)cc1OC
cell number change: -2.84% | AC50 [1]: 0.58 µM [rising, partial curve, poor fit] | AC50 [2]: 0.731 µM [rising, partial curve, poor fit]

Cc1cccc(NC(=S)N2CCN(C(=O)C3CCCO3)CC2)c1 (stereo not given)
cell number change: -23.2% | AC50 [2]: 29.1 µM [falling, single point]

COc1ccc(C(O)(CCN2CCCCC2)C2CCCCC2)cc1 (stereo not given)
cell number change: -23.4% | AC50 [2]: 29.1 µM [falling, single point]
